In general, Inhibition refers to the change of the read-out against control, counted positive when it falls.

Some of the results follow. Entries with a potency or affinity are not part of this list.

In the test the test system is Pseudomonas aeruginosa. To be noted: Concentration 20 uM; ASSAY_TEST Inhibition of Bacterial Growth; detection method Absorption (OD600); MEDIA CAMHB; plate type 384well; NBS; CORNING #3640; time 18 hr.
In the case of `Cc1ccc(NC(=O)Nc2cccnc2)cc1NC(=O)Nc1cccnc1`, the Inhibition is recorded as 27.19%.
In the case of `Cc1ccc(NC(=O)NNC(=O)CSC2CCc3ccccc32)c(C)c1` (stereo not drawn), the Inhibition was 16.22%.
In the case of `CC(=O)Nc1ccc(S(=O)(=O)N=S(C)C)cc1`, the Inhibition stood at 4.98%.
On to `NC(=O)c1nnsc1-c1ccc(-c2snnc2C(N)=O)cc1`, for which the Inhibition stood at 29.23%.
`CC(C)C(=O)Nc1cccnc1`: the Inhibition is recorded as 13.23%.
With `CC(=O)c1cc(O)c2ccccc2c1O`, the Inhibition came to 0.14%.
Take `COC(=O)Nc1csc2c1NC(=O)CCCC2`: the Inhibition worked out at 18.75%.
With `Clc1ccc(Oc2nc3c(Cl)cccc3s2)cc1Cl`, the Inhibition worked out at 16.91%.
For the molecule `CCc1ccc(CCN2C(=O)c3ccccc3C2=O)nc1`, the Inhibition came out at 6.23%.
As for `C=C(C)CN1C(=O)C(C)S/C1=N/N=C1/SCC(=O)N1C` (stereo not drawn), the Inhibition is 19.34%.
The same measure for `CC(O)(c1ccccc1)C(c1ccccc1)C1CCCCN1` (stereo not drawn): -0.87%; for `O=C(Nc1cccc(-c2ccccc2)c1)N1CCN(C(=O)Nc2cccc(-c3ccccc3)c2)CC1`: 16.81%.
Consider `CCOC(=O)/C=C/c1nc(O)c(C)c(C(=O)OCC)n1`, for which the Inhibition was determined as 7.14%.
Consider `O=c1[nH]cc(Cl)cc1Cl`, for which the Inhibition is 23.82%.
The same measure for `CN(C)/C=N/c1ccc(Cl)c(Cl)c1`: -9.94%; for `CCOC(=O)Nc1ccc2nc(Sc3ccc(Cl)cc3)sc2c1`: 13.48%; for `CC(=O)CC[N+](C)(C)C.[I-]`: 4.37%.
As for `COc1cc(C2NC(=O)C(C#N)=C(Nc3cccc(C)c3)S2)ccc1O` (stereo not drawn), the Inhibition is on record as 24.75%.
In the case of `Cc1ccc(Nc2ccc(N)cc2S(=O)(=O)O)cc1`, the Inhibition is listed as 0.58%.
As for `CC(=O)Nc1ccc(OC(=O)Oc2ccc(NC(C)=O)cc2)cc1`, the Inhibition was determined as 18.73%.
Then `CCCCCC(=O)N1CCCC1`, with 4.13%; and `NNC(=O)Cc1cc(O)[nH]n1`, with 7.46%.
The same measure for `O=C(O)c1cc2ccccc2cc1Nc1ccccc1`: -18.37%; for `CC(=O)NS(=O)(=O)c1ccc2sc(C)nc2c1`: 11.44%; for `CC(C)(NC(=O)c1cc(Cl)c2ccccc2c1O)C(=O)O`: 19.83%.
For `Nc1ccc(-c2nc3nc(N)nc(N)c3nc2-c2ccc(N)cc2)cc1`, the Inhibition was found to be 2.51%.
Regarding `CC(C)(C)n1nc(C2CC2)cc1NC(=O)Nc1ccccc1`, the Inhibition was 21.35%.
Then `O=C1/C(=C/c2ccc([N+](=O)[O-])cc2)CCc2ccccc21`, with 15.35%.
Regarding `Oc1ncnc(CN2CCCCC2)c1O`, the Inhibition is 13.07%.
Then `Brc1ccc(/N=N/c2ccc3ccccc3n2)cc1`, with -8.76%; and `CC1=C(C(N)=O)S(=O)(=O)c2ccccc21`, with 17.62%.
As to `N[C@H](C(=O)O)[C@H]1ON=C(Cl)[C@@H]1O`, the Inhibition is 6.12%.
As to `CC(=O)NC1=C/C(=C\[N+](=O)[O-])C=C1O`, the Inhibition amounted to 20.31%.
Then `COc1c(/C=N/NC(N)=O)c(OC)c(OC)c2c1CCO2`, with -6.5%; and `Nc1ccc(C(=O)C(=O)c2ccc(N)cc2)cc1`, with -28.14%; and `Cc1cc(C)n2c(C)nnc2c1`, with 1.58%.
As for `Cc1ccc(NC(=O)Nc2nc3ccccc3s2)cc1NC(=O)Nc1nc2ccccc2s1`, the Inhibition is 21.18%.
As for `O=C1OCC/C1=C\OCCCO/C=C1\CCOC1=O`, the Inhibition is given as -6.5%.
For the molecule `COc1cc(-c2ccc(NC(=O)NC3CC3)c(OC)c2)ccc1NC(=O)NC1CC1`, the Inhibition is on record as 15.9%.
As to `O=C(Nc1ccc(Br)c2ccccc12)c1ccc2ccccc2c1O`, the Inhibition was -14.22%.
In the case of `COc1cccc(/C=C2\CCc3ccccc3C2=O)c1`, the Inhibition was 19.09%.
For `CC(=O)OCCN1c2ccccc2Sc2cnccc21`, the Inhibition was -7.06%.
Regarding `CCOC(=O)C1=C(N)N=C(N)C1=Nc1ccc(OC)cc1`, the Inhibition worked out at 4.79%.
Turning to `O=C(O)c1nc2nc(Cl)c(Cl)nc2[nH]1`, the Inhibition is 2.18%.
The same measure for `COC(=O)c1ccc(C(=O)OC)c(O)n1`: 4.03%; for `Cn1c(CO)cnc1-c1ccccc1`: -17%.
As for `CC1(C)C2CCC(CN=C(N)CSS(=O)(=O)O)C1C2` (stereo not drawn), the Inhibition was 16.18%.
For the molecule `COC(=O)CC1OCC=C2CN3CCC45C6=CC(=O)C(=O)C([N+](=O)[O-])=C6NC4C1C2CC35` (stereo not drawn), the Inhibition is on record as 16.59%.
As for `COc1ccc2nc3cc(Cl)ccc3c(Nc3cc(C(C)C)c(O)cc3C)c2c1`, the Inhibition was determined as 26.8%.
In the case of `Nc1cc([N+](=O)[O-])ccc1Nc1ccc(O)cc1`, the Inhibition is given as -4.08%.
As for `Cc1cccn2c(S)nnc12`, the Inhibition was 20.74%.
Then `CC(=O)C1C=CC(C)(C(=O)O)C2C=C(C)C(=O)C(C)(O)C12` (stereo not drawn), with 15.12%.
For the molecule `Nc1ccc(/C=C/c2ccc3ncccc3c2)cc1`, the Inhibition is recorded as -0.74%.
Then `COc1c(O)ccc2c1CN1CCc3cc4c(cc3C1C2)OCO4` (stereo not drawn), with 19.08%; and `CCOC(=O)c1cnc(SCC)nc1O`, with 4.33%; and `CCCCCCCCCCCCC(NC(C)=O)(C(=O)OCC)C(=O)OCC`, with 27.59%.
For the molecule `CCN(CC)CCNC(=O)C(Cl)=C1C(Cl)=C(Cl)C(Cl)=C1Cl`, the Inhibition was determined as 23.23%.
The same measure for `C[C@@H]1C[C@H]2OC(=O)[C@@]3(C)CCC[C@@](C)([C@@H]23)[C@@]1(O)CCc1ccoc1`: -7.18%; for `O=C(O)c1ccc(O)c(O)c1` [PROTOCATECHUIC ACID]: 13.68%.
Regarding `O=C(O)/C=C/C(=O)N1Cc2cc3ccccc3nc2C1`, the Inhibition is -0.67%.
Turning to `CC(C)=C(c1ccc(Cl)cc1)c1c(N)ncnc1N`, the Inhibition stood at 23.07%.
As for `NC(=O)c1ccc2c(c1)S(=O)(=O)c1ccccc1C2=O`, the Inhibition was determined as 11.35%.
For `CC1=C(C#N)C(C)(C)C(C#N)=C(C)N1`, the Inhibition is reported as 9.31%.
Then `COC(=O)Cc1[nH]c(Cl)nc1C(N)=O`, with -7.94%.
As for `CCCCC[C@H](O)/C=C/[C@@H]1[C@@H](C/C=C\CCCC(=O)O)[C@@H](O)C[C@H]1O.NC(CO)(CO)CO` [DINOPROST TROMETHAMINE], the Inhibition came to 16.5%.
The same measure for `COC(=O)c1cc(C)nc2c(C)cc3[nH]c4ccccc4c3c12`: -10.39%; for `COc1cc2c(cc1OC)[N+]([O-])=C(c1ccccc1)C2=O`: 8.62%; for `Cn1cnc([N+](=O)[O-])c1Sc1nnc(-c2cccnc2)n1C`: 12.12%.
`COc1ccccc1N=NNc1ccccc1OC`: the Inhibition was found to be 12.97%.
Turning to `Cc1nc(NC(=N)N(C)C)nc(O)c1C`, the Inhibition worked out at 11.32%.
Take `CN1CCN(C(=O)/C=C/c2ccc([N+](=O)[O-])o2)CC1`: the Inhibition was -8.22%.
`COC(=O)C1(C)Cc2cc(OC(C)=O)c(OC(C)=O)cc2N1` (stereo not drawn): the Inhibition is recorded as 28.58%.
The same measure for `N#C/C(=C\c1cccnc1)c1ccc(Br)cc1`: -9.52%.
With `CN(C)CC1C2CCC(C2)C1O` (stereo not drawn), the Inhibition is 17.74%.
Turning to `CCCc1nc2c(=O)n(C)c(=O)n(C)c2[nH]1`, the Inhibition is 11.73%.
`Clc1nc2nc3n(c2nc1Cl)CCC3`: the Inhibition is reported as -0.45%.
For the molecule `CSc1cccc(NC(=O)Nc2ccccc2C(N)=O)c1`, the Inhibition is reported as 29.8%.
On to `O=C1CCCC1C(=O)Nc1ccc2ccccc2c1` (stereo not drawn), for which the Inhibition is on record as -6.41%.
As to `CCOC(=O)/C=C/c1ccc(C(=O)OCC)[nH]1`, the Inhibition was 5.49%.
With `CC(C)(C)N=C(S)NC(C)(C)C`, the Inhibition is -0.2%.
Consider `COc1cc(C(O)c2nc3ccccc3s2)cc(OC)c1OC` (stereo not drawn), for which the Inhibition was found to be 16.19%.
For `Oc1cccc2cnccc12`, the Inhibition is reported as 21.27%.
Consider `CCC(CO)Nc1nc2ccc(Cl)cc2c2ccccc12` (stereo not drawn), for which the Inhibition is 16.3%.
With `CCCCC(=O)N(CCC)CCC`, the Inhibition worked out at 18.06%.
`O=C(Nc1ccsn1)c1ccc(Cl)cc1Cl`: the Inhibition is listed as 10.62%.
For the molecule `CCOC(=O)C1CC(C)=C(C)CC1C(=O)O` (stereo not drawn), the Inhibition amounted to 0.56%.
The same measure for `COc1cc2oc3cc(C)oc(=O)c3c2cc1OC`: 16.39%; for `Nc1ccc(SCc2nc3cccc4c3n2CCC4)cc1`: 19.18%; for `COc1cccc2nc3cc(C)c(C)cc3nc12`: 17.29%.
Regarding `COc1cc(C(=O)c2cocc2C(=O)c2ccc3c(c2)OCO3)cc(OC)c1OC`, the Inhibition is 16.12%.
Turning to `CC(=O)Nc1ccc(OCCOc2ccc([N+](=O)[O-])cc2)cc1`, the Inhibition came to 23.44%.
As to `CCN1CCC(Nc2ccnc3cc(Cl)ccc23)CC1`, the Inhibition is -3.06%.
Turning to `CC1=NCC(C)c2ccccc21` (stereo not drawn), the Inhibition is on record as 15.66%.
The same measure for `CN(C)c1ccc(C(c2ccc(N(C)C)cc2)c2ccc([N+](=O)[O-])cc2)cc1`: 16.19%; for `COc1ccc([N+](=O)[O-])cc1NS(=O)(=O)c1ccc(C)cc1`: 28.95%; for `Cc1ccc(Nc2nnc(-c3ccc4c(c3)OCO4)o2)c(C)c1`: 14.11%.
The same measure for `Cc1ccc(Nc2nc(Cl)nc3ncn(C)c23)c(C)c1`: -3.7%; for `Cc1nc(S)nc(O)c1Cc1c(O)ccc2ccccc12`: 1.78%.
The same measure for `COc1ccccc1NC(=O)Nc1cc(C(C)C)ccc1C`: -7.42%; for `Cc1c([N+](=O)[O-])oc2c1C(=O)NCCC2`: 6.19%; for `CN(C)c1ccc(/C=C(\C#N)C(=O)c2ccccc2)cc1`: 21.3%.
Consider `CCC(C)NC(=O)c1cccc(C)c1` (stereo not drawn), for which the Inhibition is listed as 23.16%.
As to `O=C(Nc1cccc(Cl)c1)Nc1nccs1`, the Inhibition stood at 9.58%.
Consider `CCNc1nc(Cl)nc(-c2cn(-c3ccccc3)c3ccccc23)n1`, for which the Inhibition was found to be 19.71%.
Regarding `CC1=CC(=C2C=CC(=O)C=C2)C=C(C)N1C`, the Inhibition was -0.86%.
Consider `Clc1ccccc1/C=C/c1ccnc2ccccc12`, for which the Inhibition was 8.03%.
On to `Cn1ncc2c(NCc3ccccc3)ncnc21`, for which the Inhibition is 19.06%.
Consider `COc1ccc(NC(=O)N2CCN(C(=O)Nc3ccc(OC)cc3)CC2)cc1`, for which the Inhibition was -2.6%.
Then `CC(=O)Oc1ccc2cc(-c3ccccc3)c(=O)oc2c1`, with -1.9%.
On to `CC(C)CNC(=O)/C=C\C(=O)O`, for which the Inhibition is -9.36%.
Turning to `NS(=O)(=O)c1ccc(NC(=S)NC(=O)c2ccco2)cc1`, the Inhibition is recorded as 30.83%.
In the case of `Cc1cc(O)c2cc(C(=O)c3ccccc3)ccc2n1`, the Inhibition was 5.32%.
As to `CN1CCC(=C(c2ccc(Cl)cc2)c2ccccn2)CC1.O=C(O)/C=C\C(=O)O` [CYCLIRAMINE MALEATE], the Inhibition was 13.91%.
